Sequences and labels used below:
B1: VHH-12 (VHH)
VHH: EVQLVESGGGSVQPGESLRLSCVASGYTVSSSCMAWFRQAPGKEREVVATIVVTSDTTSTFYADSVKGRFTISPDNAKNTLNLQMNSLEPSDTAMYYCAADRKWNVCSRGYRYTPNWANQFTFWGQGTQVTVSS
notes: also called clone 12
B2: VHH-13 (VHH)
VHH: B1 VHH with E1H
notes: also called clone 13
B3: VHH-16 (VHH)
VHH: DVQLVESGGGSVQPGGSLRLSCAASGYTVENSCMAWFRQAPGKEREVVATIVTNNATGTFYADSVKGRFTVSQDNAKNTLNLQMNSLEPEDTAMYYCAADTKWIVCSRGYRYTPNWANQFKYWGQGTQVTVSS
notes: also called clone 16
B4: VHH-25 (VHH)
VHH: EVQLVESGGGSVQAGGSLRLSCVVSGYTCSVYDMIWYRQPPGKEREFVSLINSNGRTTYADSVKGRFTISQNNAKNTVYLQMNSLKPEDTAMYYCHAACYSPSRLNYWGQGTQVTVSS
notes: also called clone 25
B5: VHH-22 (VHH)
VHH: B4 VHH with E1Q, Q113L
notes: also called clone 22
B6: single-domain antibody VHH-13 containing His6 tag (VHH)
VHH: B1 VHH with E1H
notes: also called Nanobody #13
B7: single-domain antibody VHH-22 containing His6 tag (VHH)
VHH: B4 VHH with E1Q, Q113L
notes: also called Nanobody #22
B8: single-domain antibody VHH-25 containing His6 tag (VHH)
VHH: B4 VHH
notes: also called Nanobody #25; pALT-Avb3 VHH25 product
B9: VHH-23 (VHH)
VHH: HVQLVESGGGSVQTGGSLRLSCAASGYTSSTVYMAWFRQTPGKQREGVAAIYTGGGPTYYADSVKGRFTISQDNAKNTVYLQMNTLKPEDTAMYYCAADRYVYRLVTNWYRPSFYTYWGQGTQVTVSS
notes: also called clone 23
B10: clone 19 (VHH)
VHH: B1 VHH
B11: clone 28 (VHH)
VHH: B1 VHH
B12: clone 14 (VHH)
VHH: B1 VHH with E1D, Q129L
B13: VHH-15 (VHH)
VHH: B1 VHH with S91P
notes: also called clone 15
B14: VHH-17 (VHH)
VHH: B1 VHH with E1D, Q129L
notes: also called clone 17
B15: clone 29 (VHH)
VHH: B1 VHH with E1D, Q129L
B16: VHH-11 (VHH)
VHH: B1 VHH with E1D, Q129L
notes: also called clone 11
B17: clone 27 (VHH)
VHH: B1 VHH with E1H
B18: clone 21 (VHH)
VHH: B1 VHH with E1H
B19: clone 18 (VHH)
VHH: B3 VHH
B20: clone 30 (VHH)
VHH: B3 VHH with E30D, G58S, Q73H, S86T, Q119H, K121N, Q128L
B21: VHH-20 (VHH)
VHH: B3 VHH with E30D, G58S, Q73H, S86T, Q119H, K121N, Q128L
notes: also called clone 20
B22: clone 26 (VHH)
VHH: B4 VHH with E1Q, Q113L
B23: single-domain antibody VHH-25 containing lysin and His6 tags (VHH)
VHH: B4 VHH
notes: also called Nanobody #25-Lys; VHH-25-K1; not shown: C-terminal lysine tag and His6 tag with any linker
B24: clone 32 (VHH)
VHH: B1 VHH
B25: clone 3 (VHH)
VHH: B1 VHH with S91P
B26: clone 2 (VHH)
VHH: B1 VHH with S91P
B27: clone 4 (VHH)
VHH: B1 VHH with S91P
B28: clone 8 (VHH)
VHH: B3 VHH
B29: clone 40 (VHH)
VHH: B3 VHH with E30D, G58S, Q73H, S86T, Q119H, K121N, Q128L

Chains of the proteins cited; added tags and fusions are not shown. Lines headed by an entry give the natural chain unless they say otherwise; changes in a name come on top.
UniProt P06756: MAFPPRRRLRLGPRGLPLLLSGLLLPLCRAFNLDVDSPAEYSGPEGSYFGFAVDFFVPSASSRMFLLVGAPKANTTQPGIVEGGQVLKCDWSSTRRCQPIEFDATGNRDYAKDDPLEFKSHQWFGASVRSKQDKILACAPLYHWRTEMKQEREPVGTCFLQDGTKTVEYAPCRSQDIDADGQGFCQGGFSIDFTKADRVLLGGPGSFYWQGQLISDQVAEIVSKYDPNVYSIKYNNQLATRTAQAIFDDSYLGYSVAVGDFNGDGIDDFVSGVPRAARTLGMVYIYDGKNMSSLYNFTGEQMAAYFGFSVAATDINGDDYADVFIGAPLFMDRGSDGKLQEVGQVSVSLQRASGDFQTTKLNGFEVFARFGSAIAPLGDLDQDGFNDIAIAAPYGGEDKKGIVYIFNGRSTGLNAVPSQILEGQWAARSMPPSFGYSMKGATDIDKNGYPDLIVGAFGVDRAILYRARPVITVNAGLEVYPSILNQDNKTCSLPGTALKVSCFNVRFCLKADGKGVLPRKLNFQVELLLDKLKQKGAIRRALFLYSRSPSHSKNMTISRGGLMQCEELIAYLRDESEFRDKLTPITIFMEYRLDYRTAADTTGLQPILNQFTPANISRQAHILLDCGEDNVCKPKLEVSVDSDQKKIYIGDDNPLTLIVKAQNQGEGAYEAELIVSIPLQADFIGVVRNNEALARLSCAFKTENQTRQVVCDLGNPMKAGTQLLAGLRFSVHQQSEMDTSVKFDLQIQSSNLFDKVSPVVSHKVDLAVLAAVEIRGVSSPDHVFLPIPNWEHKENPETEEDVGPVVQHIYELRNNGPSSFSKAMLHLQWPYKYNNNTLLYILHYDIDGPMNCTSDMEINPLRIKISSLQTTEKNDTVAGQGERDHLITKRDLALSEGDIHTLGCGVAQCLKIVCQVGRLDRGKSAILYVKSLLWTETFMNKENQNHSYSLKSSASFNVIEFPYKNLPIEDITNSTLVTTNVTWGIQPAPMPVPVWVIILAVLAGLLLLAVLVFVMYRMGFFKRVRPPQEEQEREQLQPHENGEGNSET

Positions count from the first letter of the chain named. Results are given in words; binding and its absence hold for the method and conditions named. Some results given as binding are weak or reduced against the parent protein; the word gives no strength. For some assays here: Sequences can lack the tags named with a protein.

Drawing on patent US20220133913A1 (KOREA BASIC SCIENCE INSTITUTE, published 2022), this text covers binding for 29 molecules.

For one test, the target named is T1, human αvβ3 integrin ITGAVB3 (human, UniProt P06756 31-992; P05106 27-718, limits assumed).
T1 construct: Recombinant heterodimer used as immunogen, ELISA coating and SPR ligand; also called A5B3; A5b3
The experiment in a line: ELISA of soluble VHH. Background: An ELISA detects its analyte on a solid surface through an enzyme-linked reagent.
With B1, the binding entry is “binds”.

B2: the binding result was “binds”. The same measure, in the same setting: for B3 the value was “binds”; for B4, “binds”. Still for that read-out and setting: for B5 the value was “binds”.

A further test addresses T1, human αvβ3 integrin ITGAVB3. Nature of the test: SPR. For orientation: SPR reads the build-up and loss of mass on a sensor chip optically.
Turning to B6, the binding result is given as “binds”. Take B7: the binding result is reported as “binds”. The same measure, in the same setting: for B8 the value was “binds”.

For the next test the target is unchanged. The experiment in a line: ELISA.
In the case of B9, the binding result is reported as “binds”.

B10: the binding result is reported as “binds”. With B11, the binding result is given as “binds”.

For the molecule B1, the binding result was “binds”.

As for B12, the binding entry was “binds”.

In the case of B2, the binding entry is listed as “binds”. On the same count and under the same terms, for B13 the value was “binds”; for B14, “binds”; for B15, “binds”. On the same count and under the same terms, next, B16: “binds”; B17: “binds”; B18: “binds”. The same measure, in the same setting: next, B3: “binds”. Consider B19, for which the binding entry is reported as “binds”. On the same count and under the same terms, for B20 the value was “binds”; for B21, “binds”; for B4, “binds”.

With B22, the binding entry was “binds”. In the case of B5, the binding entry was “binds”.

A further test shares this target. Nature of the test: SPR, αvβ3 integrin immobilised on a CMDH chip, nanobody as analyte.
For the molecule B6, the binding entry is recorded as “binds”. On the same count and under the same terms, for B7 the value was “binds”. Take B23: the binding result is “binds”.

In the case of B8, the binding entry is recorded as “binds”.

The next test has the same target. Nature of the test: phage ELISA.
On to B9, for which the binding result is “binds”. For B24, the binding entry was “binds”. The same measure, in the same setting: next, B10: “binds”; B11: “binds”.

With B1, the binding result was “binds”. On to B12, for which the binding result was “binds”. With B2, the binding entry is recorded as “binds”. Same read-out and setting: for B13 the value was “binds”; for B25, “binds”. On the same count and under the same terms, for B14 the value was “binds”; for B15, “binds”.

With B16, the binding result is recorded as “binds”. Still for that read-out and setting: next, B26: “binds”; B27: “binds”; B17: “binds”. The same measure, in the same setting: next, B18: “binds”; B3: “binds”; B19: “binds”. The same measure, in the same setting: for B28 the value was “binds”.

For the molecule B20, the binding result was “binds”. Same read-out and setting: next, B21: “binds”. The same measure, in the same setting: next, B29: “binds”; B4: “binds”; B22: “binds”. On the same count and under the same terms, next, B5: “binds”.
